Results as given in US20080015166A1, “Barrier Integrity in Hiv Patients” (N.V. Nutricia, priority 2004, published 2008).
For at least one compound, name, drawing or mass did not settle the structure.

Tests used:
[1] = system: intestinal epithelial cell lines T84 monolayers; assay: Effect of LC-PUFA on basal (spontaneous) barrier integrity: TER and 4 kD FITC dextran flux in T84 monolayers; assay type: cell-based, human; conditions: 100 μM, 72 hr, Table 1
Method: (§1) Monolayers (MC) of intestinal epithelial cell lines T84 (American Type Culture Collection (ATTC), Manassas, USA) were cultured on transwell filters (Corning, Costar B V, The Netherlands) allowing both mucosal and serosal sampling and stimulation of human intestinal epithelial cells. Two weeks post confluency the monolayers were incubated in the luminal compartment with polyunsaturated fatty acids ARA (arachidonic acid; 5,8,11,14-eicosatetraenoic acid), DHA (cis-4,7,10,13,16,19 docosahexaenoic acid), EPA (eicosapentaenoic acid) or control palmitic (C 16:0) acid (Palm) (Sigma, St. Louis, USA). The latter procedure was chosen to mimic the in vivo administration route of the dietary compounds. Cells were incubated with ARA, DHA, EPA, GLA or palmitic acid for 0, 24, 48 and 72 hr at different concentrations (10 μM and 100 μM). Experiments were performed to evaluate basal barrier integrity. The epithelial barrier function was determined by measuring the transepithelial resistance (TER, Ω.cm^2) was measured by epithelial volt-ohm meter (EVOM; World Precision Instruments, Germany) and permeability for 4 kD FITC dextran (paracellular permeability marker, Sigma, USA). […]

[2] = system: intestinal monolayer cells; conditions: Usami et al, Clinical Nutrition 2001; cited from earlier work
[3] = system: intestinal epithelial cell lines T84 monolayers incubated with IL-4; assay: Effect of LC-PUFA on IL-4 mediated barrier disruption: TER and flux in T84 monolayers; assay type: cell-based, human; conditions: 100 μM, Table 2
Method: as §1, with “Cells were incubated with ARA, DHA, EPA, GLA or palmitic acid for 0, 24, 48 and 72 hr at different concentrations (10 μM and 100 μM). Experiments were performed to evaluate basal barrier integrity.” left out
Monolayers (MC) of intestinal epithelial cell lines T84 (ATCC, USA) were cultured on transwell filters (Corning, Costar B V, The Netherlands) allowing both mucosal and serosal sampling and stimulation of human intestinal epithelial cells. […] The epithelial barrier function was determined by measuring the transepithelial resistance (TER) and permeability as described in example 1. […]

In the case of `CC/C=C\C/C=C\C/C=C\C/C=C\C/C=C\CCCC(=O)O` [EPA, eicosapentaenoic acid], the “effect on epithelial resistance (in words)” value [1] is listed as “improve epithelial resistance”, the “effect on molecular flux (in words)” value [1] is listed as “reduce the molecular flux” and the “tight junction permeability (in words)” value [2] is listed as “increase permeability”. For the same compound, the “effect on IL-4 mediated barrier disruption (flux), in words” value [3] was “inhibit the increased flux caused by IL-4”.
